Earlier results, collected in article PMC10341634, “Vasodilating Effects of Antispasmodic Agents and Their Cytotoxicity in Vascular Smooth Muscle Cells and Endothelial Cells—Potential Application in Microsurgery” (International Journal of Molecular Sciences, 2023).

Settings: cited from earlier work

CCN(CC)CC(=O)Nc1c(C)cccc1C [Lidocaine, lidocaine]
demonstrated toxicity level (blood concentration): 5 to 10 µg/mL
